Drawing on article PMC8037086, this text covers binding for 2 substances.

These are yes or no findings as the source states them, for the method shown.

For test [1], the target named is Aha1's N-terminal domain (Aha1^28−162) (human) (UniProt O95433). Description: NMR titration; 1H-15N-HSQC of 15N-labeled Aha1^28−162 or 15N-labeled Aha1^204−335 without or with equal molar of the unlabeled other domain; 20 mM Tris/HCl, 150 mM KCl, 0.5 mM EDTA, 5 mM β-mercaptoethanol, 10% D2O, pH 7.5; 25 °C; both purified.
Test [2] has as its target Aha1's C-terminal domain (Aha1^204−335) (human) (UniProt O95433). Described as above.

Take “Aha1's C-terminal domain (Aha1^204−335) (from UniProt O95433-1 204-335) (domain or fragment)”: the binding entry in test [1] is “no binding (tested: equal molar of unlabeled Aha1^204−335)”.

For “Aha1's N-terminal domain (Aha1^28−162) (from UniProt O95433-1 28-162) (domain or fragment)”, in test [2], the binding result is on record as “no binding (tested: equal molar of unlabeled Aha1^28−162)”.
